Experimental data: PubChem BioAssay AID1259308 (NCATS, 2017)

Purpose: 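Candidate targets for better recombinant protein yield in mammalian cells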 (primary screen)
Cells: human HEK293 embryonic kidney cells stably expressing firefly luciferase (HEK-CMV-Luc2-Hygro)
Reagents: single siRNA against human genes, 0.8 pmol siRNA per well
Time to read-out: 72 h
Read-out: 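Luciferase light (ONE-Glo) measured on one replicate plate set and viability (CellTiter-Glo) on the other, scaled to a negative control siRNA, with robust z-scores and luciferase per cell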
Direction: total luciferase, z-score and total luciferase, % of control: higher = more reporter protein produced
Call rule: 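Active when the median/MAD z-score for overall luciferase is greater than 3; a gene was taken forward for validation with new siRNAs if at least two of its three siRNAs passed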
Calls: active = raised luciferase; inactive = no rise
Here is one part, drawn at random, of about 59,000 reagents. About 1,510 of them (2.6%) were called active. 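Calls use total luciferase alone and ignore viability, so some active siRNAs may act by altering cell number.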 The numbers tell different reagents against one gene apart. Not all columns of the deposit are shown.

The first 2 entries as a preview:
ARID3C (GeneID 138715) #1 — total luciferase, z-score = 0.406; total luciferase, % of control = 90; Call = inactive
ARID3C (GeneID 138715) #2 — total luciferase, z-score = 1.67; total luciferase, % of control = 115; Call = inactive

The list itself, repeating the preview:
ARID3C (GeneID 138715) #1 — total luciferase, z-score = 0.406; total luciferase, % of control = 90; Call = inactive
ARID3C (GeneID 138715) #2 — total luciferase, z-score = 1.67; total luciferase, % of control = 115; Call = inactive
ARID3C (GeneID 138715) #3 — total luciferase, z-score = 0.865; total luciferase, % of control = 99.1; Call = inactive
ATP6V1E1 (GeneID 529) #1 — total luciferase, z-score = -1.1; total luciferase, % of control = 60; Call = inactive
ATP6V1E1 (GeneID 529) #2 — total luciferase, z-score = -0.938; total luciferase, % of control = 63.2; Call = inactive
ATP6V1E1 (GeneID 529) #3 — total luciferase, z-score = -1.94; total luciferase, % of control = 43.3; Call = inactive
IL20RB (GeneID 53833) #1 — total luciferase, z-score = -1.42; total luciferase, % of control = 53.6; Call = inactive
IL20RB (GeneID 53833) #2 — total luciferase, z-score = -2.35; total luciferase, % of control = 35.1; Call = inactive
IL20RB (GeneID 53833) #3 — total luciferase, z-score = 0.404; total luciferase, % of control = 89.9; Call = inactive
SAT1 (GeneID 6303) #1 — total luciferase, z-score = -0.233; total luciferase, % of control = 77.2; Call = inactive
SAT1 (GeneID 6303) #2 — total luciferase, z-score = -0.0951; total luciferase, % of control = 80; Call = inactive
SAT1 (GeneID 6303) #3 — total luciferase, z-score = 0.529; total luciferase, % of control = 92.4; Call = inactive
